According to patent US20110207801A1, “Novel Genes, Compositions, and Methods for Modulating the Unfolded Protein Response” (University of Michigan, priority 2002, published 2011):
Some entries share one result that the patent states for a list of compounds.

Tested on: xbp-1
Assay: total xbp-1 transcription upon ER stress (quantitative Taqman RT-PCR)
Assay type: in vivo, C. elegans
Conditions: data not shown

## O[C@H](CS)[C@H](O)CS (racemic) [DTT, dithiothreitol]
  increase of total xbp-1 transcription: 2˜3 fold
